The target in assay [1] is Sodium-dependent dopamine transporter (Homo sapiens, UniProt Q01959).
In assay [2] the target is Kappa-type opioid receptor (Homo sapiens, UniProt P41145).
In assay [3] the target is Sodium-dependent noradrenaline transporter (Homo sapiens, UniProt P23975).

Chains of the proteins cited; added tags and fusions are not shown. Lines headed by an entry give the natural chain unless they say otherwise; changes in a name come on top.
UniProt Q01959, whole entry: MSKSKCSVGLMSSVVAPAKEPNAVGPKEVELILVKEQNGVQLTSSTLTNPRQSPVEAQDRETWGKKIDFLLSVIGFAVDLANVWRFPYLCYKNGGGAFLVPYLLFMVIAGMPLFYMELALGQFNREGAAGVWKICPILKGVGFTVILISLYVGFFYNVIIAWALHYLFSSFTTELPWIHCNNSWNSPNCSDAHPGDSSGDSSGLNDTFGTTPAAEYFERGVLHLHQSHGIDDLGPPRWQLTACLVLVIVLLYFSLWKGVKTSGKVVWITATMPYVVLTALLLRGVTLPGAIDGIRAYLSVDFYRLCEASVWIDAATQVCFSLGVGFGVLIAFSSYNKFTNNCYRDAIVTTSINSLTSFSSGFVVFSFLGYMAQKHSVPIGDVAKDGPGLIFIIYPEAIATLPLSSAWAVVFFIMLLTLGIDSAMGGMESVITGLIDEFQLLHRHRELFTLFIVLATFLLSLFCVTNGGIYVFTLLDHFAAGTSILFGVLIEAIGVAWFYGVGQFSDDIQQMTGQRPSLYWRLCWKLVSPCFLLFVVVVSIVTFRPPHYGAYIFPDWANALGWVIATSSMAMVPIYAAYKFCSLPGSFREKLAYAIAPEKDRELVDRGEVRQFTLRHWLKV
UniProt P41145: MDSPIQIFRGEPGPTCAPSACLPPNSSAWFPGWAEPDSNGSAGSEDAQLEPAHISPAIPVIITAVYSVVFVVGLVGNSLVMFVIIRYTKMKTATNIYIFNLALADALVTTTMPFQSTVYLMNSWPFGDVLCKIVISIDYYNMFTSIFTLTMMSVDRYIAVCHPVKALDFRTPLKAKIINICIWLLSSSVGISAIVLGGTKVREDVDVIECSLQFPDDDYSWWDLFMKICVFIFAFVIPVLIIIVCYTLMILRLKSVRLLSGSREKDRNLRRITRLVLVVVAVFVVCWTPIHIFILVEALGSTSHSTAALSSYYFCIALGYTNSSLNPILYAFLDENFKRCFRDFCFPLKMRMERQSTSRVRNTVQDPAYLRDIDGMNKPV
UniProt P23975, whole entry: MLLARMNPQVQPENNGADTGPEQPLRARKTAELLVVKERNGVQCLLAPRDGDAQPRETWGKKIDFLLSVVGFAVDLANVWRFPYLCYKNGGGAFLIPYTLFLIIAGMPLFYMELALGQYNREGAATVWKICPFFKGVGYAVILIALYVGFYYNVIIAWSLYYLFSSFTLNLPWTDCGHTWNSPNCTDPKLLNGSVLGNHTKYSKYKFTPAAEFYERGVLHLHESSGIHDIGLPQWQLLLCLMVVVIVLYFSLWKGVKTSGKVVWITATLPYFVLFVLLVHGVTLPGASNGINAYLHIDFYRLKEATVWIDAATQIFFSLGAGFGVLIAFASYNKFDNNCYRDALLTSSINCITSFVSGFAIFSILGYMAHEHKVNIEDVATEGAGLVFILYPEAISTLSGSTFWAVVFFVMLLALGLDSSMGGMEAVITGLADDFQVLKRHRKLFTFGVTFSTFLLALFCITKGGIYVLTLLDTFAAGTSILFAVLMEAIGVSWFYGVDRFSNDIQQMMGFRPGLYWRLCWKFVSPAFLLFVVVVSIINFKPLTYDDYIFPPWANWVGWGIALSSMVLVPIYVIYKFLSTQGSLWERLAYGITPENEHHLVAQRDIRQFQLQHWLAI

The record followed here is BindingDB's records for doi:10.1038/sj.npp.1300203 (Case Western Reserve University, 2003).

A word on the Ki: it is a measure of affinity in units of concentration, obtained from inhibition or displacement. Lower therefore signals a stronger hold on the target.

As to `O=C1CCc2ccc(OCCCCN3CCN(c4cccc(Cl)c4Cl)CC3)cc2N1` [7-{4-[4-(2,3-dichlorophenyl)piperazin-1-yl]butoxy}-3,4-dihydroquinolin-2(1H)-one], the Ki in assay [1] is 3.22 µM; in assay [2] it was over 10 µM; in assay [3], 2.09 µM.
